{
  "source": "patent US10487117B2",
  "about": "“Antimicrobial peptide for nosocomial infections” (priority 2015, dated 2019)",
  "tested_on": "sheep red blood cells",
  "experiment": "Hemolysis assay",
  "assay_type": "cell-based",
  "conditions": "sheep RBCs; 37° C. for 4 h",
  "note": "Some entries share one result that the patent states for a list of compounds. Residues, ends and D or L forms follow the SMILES beside them.",
  "data": [
    {"smiles": "CC[C@H](C)[C@H](NC(=O)[C@H](C)NC(=O)[C@H](CCCNC(=N)N)NC(=O)[C@H](CCSC)NC(=O)[C@H](C)NC(=O)[C@@H](NC(=O)[C@@H](NC(=O)[C@H](CCCNC(=N)N)NC(=O)[C@@H]1CCCN1C(=O)[C@H](CO)NC(=O)[C@@H](NC(=O)[C@H](Cc1c[nH]cn1)NC(=O)[C@H](CCC(N)=O)NC(=O)[C@@H](NC(=O)[C@H](C)NC(=O)[C@H](Cc1ccccc1)NC(=O)[C@H](Cc1c[nH]c2ccccc12)NC(=O)[C@H](CCC(N)=O)NC(=O)[C@H](C)NC(=O)[C@H](CCCNC(=N)N)NC(=O)[C@@H](NC(=O)[C@H](Cc1ccccc1)NC(=O)[C@@H]1CCCN1C(=O)[C@@H](N)CCCNC(=N)N)[C@@H](C)O)[C@@H](C)CC)[C@@H](C)CC)[C@@H](C)O)[C@@H](C)CC)C(=O)N[C@@H](CC(N)=O)C(=O)N[C@@H](CC(N)=O)C(=O)N[C@@H](Cc1ccc(O)cc1)C(=O)N[C@@H](CCCNC(=N)N)C(=O)N[C@@H](Cc1c[nH]c2ccccc12)C(=O)N[C@@H](CCCNC(=N)N)C(N)=O", "note": "[RN3(5-17P22-36)] (H-RPFTRAQWFAIQHISPRTIAMRAINNYRWR-NH2; N-terminus assumed)", "values": [
      {"measurement": "HC50 (concentration required to achieve 50% hemolysis)", "result": "higher than 100 μM"}
    ]}
  ]
}
